Measured values: patent US20250074868A1, “POLYHYDROXYLATED PHOTOINITIATORS” (Arkema France, priority 2021, published 2025)

Test: UV-curing experiments, thumb-twist test for full cure under Hg lamp
Settings: 2 g Ucecoat 2805, photoinitiator 2 phr, triethanolamine 5 phr, Hg lamp 30% intensity, 24-μm films, belt speed 20 m/min
Procedure: Formulations containing 2 g of the water-borne resin Ucecoat 2805 (Allnex), 0.04 g of a photoinitiator (2 phr=2 parts by weight per 100 parts by weight of resin), and 0.10 g triethanolamine (as amine synergist, 5 phr) were prepared by mixing the materials together and stirring at room temperature for ˜30 mins. The PIs and amine co-initiators were fully dissolved in the resin within this time. The formulations were then cured under a Hg lamp (30% intensity) in 24-μm films using a belt speed of 20 m/min. The number of passes under the Hg lamp required to achieve full-cure (as determined by the thumb-twist test, in which pressure is applied with a thumb in a twisting motion until no marks are left on the cured film surface), is given below.

Compound | No. of passes to full cure
CC(C)(O)C(=O)c1ccc(OCCO)cc1 [SpeedCure 2959] | 2
O=C(c1ccccc1)c1ccc(OCC(=O)N(CCO)CCO)cc1OCC(=O)N(CCO)CCO [benzophenone polyol 1] | 2
